No constants are given. Whether binding was seen depends on the method and setting. Some binding calls cover weakened binding; strength is not graded here.
Molecular target: AP2 α-appendage (UniProt P17427)
Assay: crystal structure

Chains of the proteins cited; added tags and fusions are not shown. Residues count along the entry.
UniProt P17427, residues 702-938: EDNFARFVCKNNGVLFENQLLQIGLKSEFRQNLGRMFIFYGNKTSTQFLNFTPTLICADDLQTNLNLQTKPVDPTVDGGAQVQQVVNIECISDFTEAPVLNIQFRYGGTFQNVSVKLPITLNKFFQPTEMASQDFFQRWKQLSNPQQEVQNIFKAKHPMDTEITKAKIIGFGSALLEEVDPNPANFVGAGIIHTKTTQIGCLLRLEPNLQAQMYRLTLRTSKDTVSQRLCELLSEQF

B1: FCHO1 C peptide (residues 426-448 …) (peptide)
peptide: SEEQVSKNLFGPPLESAFDHEH
In the case of B1, the binding is reported as “binds”.

From publication doi:10.1101/2022.04.02.486817
